# Results taken from US7166454B1, “Codon-optimized β-secretase and methods of refolding and processing” (Schering Corporation, priority 2002, dated 2007).
# By UniProt entry, the sequences of proteins in these tests, tags left out. Residues count along the entry.
# UniProt P56817, 22-454: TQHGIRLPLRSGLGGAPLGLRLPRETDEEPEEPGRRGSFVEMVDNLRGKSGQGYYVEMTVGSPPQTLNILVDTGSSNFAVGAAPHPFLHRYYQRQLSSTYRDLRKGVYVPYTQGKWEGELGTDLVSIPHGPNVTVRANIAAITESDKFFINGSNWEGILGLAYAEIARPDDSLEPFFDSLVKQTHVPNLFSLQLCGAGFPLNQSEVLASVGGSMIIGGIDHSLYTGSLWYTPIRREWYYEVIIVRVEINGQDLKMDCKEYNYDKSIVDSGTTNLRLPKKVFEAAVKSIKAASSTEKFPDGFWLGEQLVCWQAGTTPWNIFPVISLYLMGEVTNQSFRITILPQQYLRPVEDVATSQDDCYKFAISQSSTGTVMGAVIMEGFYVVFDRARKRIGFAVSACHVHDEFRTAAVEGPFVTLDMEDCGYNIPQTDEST
# At least one read-out could not be matched to a standard name with certainty.
# Target: T1, β-secretase (Homo sapiens, UniProt P56817)
# T1 construct: made in house; host or cells: E. coli BL21(DE3)Star, vector pET11a
# Experiment: HPLC enzymatic activity assay of refolded β-secretase with peptide substrate derived from Swedish amyloid precursor protein
# Type: biochemical
# Details: peptide as substrate of β-secretase refolded from E. coli overexpression; reverse phase HPLC; cleaved between L and D
sequence,measurement,value
KSEVNLDAEFRK (substrate for B-secretase),specificity constant (Kcat/Km),1800 ± 100 M⁻¹ s⁻¹
